No constants are given. Whether binding was seen depends on the method and setting. Binding seen in cells or lysates may run through a third protein. Some entries that bind do so weakly or less than the wild type.
Experiments:
[1] = target: BCCIP (brca2 and cdkn1a interacting protein), endogenous in Huh7 cells (human (endogenous in Huh7)) (UniProt Q9P287); test: co-IP; endogenous proteins of Huh7 cell lysate (50 mM Tris-HCl pH 7.4, 150 mM NaCl, 1% Triton X-100), treated with benzonase; IP with anti-FBP1 or anti-BCCIP antibody, protein A/G Plus agarose, 4°C; Western blot
[2] = target: FUSE binding protein1 (FBP1), endogenous in Huh7 cells (human (endogenous in Huh7)) (UniProt Q96AE4); test: as above

Sequences of proteins named here, by UniProt entry; tags and fusion partners are left off.
UniProt Q9P287: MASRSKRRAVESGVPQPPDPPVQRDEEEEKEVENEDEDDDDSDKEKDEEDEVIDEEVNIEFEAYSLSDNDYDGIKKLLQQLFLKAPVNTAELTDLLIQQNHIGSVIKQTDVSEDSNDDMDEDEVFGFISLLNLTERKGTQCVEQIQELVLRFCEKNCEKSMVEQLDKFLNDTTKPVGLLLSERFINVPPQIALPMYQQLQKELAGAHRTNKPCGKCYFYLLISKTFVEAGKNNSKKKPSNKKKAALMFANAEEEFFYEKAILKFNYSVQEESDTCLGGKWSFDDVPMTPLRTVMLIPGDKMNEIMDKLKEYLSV
UniProt Q96AE4: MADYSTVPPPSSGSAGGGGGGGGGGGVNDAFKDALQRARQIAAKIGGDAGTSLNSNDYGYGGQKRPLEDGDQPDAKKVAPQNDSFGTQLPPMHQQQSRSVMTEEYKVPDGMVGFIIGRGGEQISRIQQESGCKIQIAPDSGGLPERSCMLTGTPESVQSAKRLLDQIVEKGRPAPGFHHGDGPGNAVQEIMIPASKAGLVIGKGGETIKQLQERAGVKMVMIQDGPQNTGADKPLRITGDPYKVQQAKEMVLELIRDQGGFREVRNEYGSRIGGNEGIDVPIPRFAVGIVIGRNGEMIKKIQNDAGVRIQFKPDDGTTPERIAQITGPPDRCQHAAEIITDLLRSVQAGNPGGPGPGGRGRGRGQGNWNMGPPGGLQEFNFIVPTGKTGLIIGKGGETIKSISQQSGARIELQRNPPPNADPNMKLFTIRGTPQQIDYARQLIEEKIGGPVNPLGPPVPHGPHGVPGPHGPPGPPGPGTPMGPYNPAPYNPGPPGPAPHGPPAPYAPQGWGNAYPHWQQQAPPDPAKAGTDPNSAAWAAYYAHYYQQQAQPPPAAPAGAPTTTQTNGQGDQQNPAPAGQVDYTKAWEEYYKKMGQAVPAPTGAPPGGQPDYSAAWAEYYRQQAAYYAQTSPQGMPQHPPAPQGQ

FUSE binding protein1 (FBP1), endogenous in Huh7 cells (from UniProt Q96AE4 1-644)
binding [1]: binds

B1: translationally controlled tumor protein (TCTP), endogenous in Huh7 cells (protein, UniProt P13693 1-172)
chain: MIIYRDLISHDEMFSDIYKIREIADGLCLEVEGKMVSRTEGNIDDSLIGGNASAEGPEGEGTESTVITGVDIVMNHHLQETSFTKEAYKKYIKDYMKSIKGKLEEQRPERVKPFMTGAAEQIKHILANFKNYQFFIGENMNPDGMVALLDYREDGVTPYMIFFKDGLEMEKC
binding [2]: binds

Source: publication PMC4295397
